Percent effect of library compounds

Measurements from “University of Dundee, Small-Polar-MMV Screening Library” (2021), ChEMBL document CHEMBL3988442.

Mtb glucose medium: 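Whole-cell growth test on Mycobacterium tuberculosis, read after 3 days in glucose-containing 7H9 medium; the read-out is not stated. Concentration: 50 µM. Direction is inferred from retests: higher values go with more growth inhibition. Of about 69,000 compounds tested this way, about 760 (1.1%) reached 50% or more in at least one test.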
Mtb cholesterol medium: 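Growth of Mycobacterium tuberculosis over 4 days (cholesterol / DPPC medium with tyloxapol); the read-out is not stated. Compounds at 50 µM. Higher reads as more growth inhibition (inferred: compounds with an IC50 in retests scored well above the rest). Of about 69,000 compounds tested this way, about 370 (0.54%) reached 50% or more in at least one test.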

Each number is a percent effect as filed.
The controls that fix the scale are not given in the record; negative values are as filed.
Compounds were drawn at random from those tested, without regard to their results.
Two or more numbers in one place are separate tests of the same structure; such repeats can differ widely.

| # | structure | Mtb glucose medium | Mtb cholesterol medium |
|---|---|---|---|
| 1 | `CCc1cnc(CN(C)C2CCN(CCn3cc(C#N)cn3)C2)o1` (stereo not given) | -5.496% | -7.673% |
| 2 | `NC(=O)c1ccc(CNC(=O)Nc2cn[nH]c2)cc1` | -57.43% & 2.232% | 12.81% |
| 3 | `COc1ccccc1CC(=O)NS(=O)(=O)c1ccc(C#N)cc1` | 25.68% | -14.03% |
| 4 | `Cc1cc(CNC(=O)CN2CCN(C(=O)OC(C)(C)C)CC2)ccc1F` | 0.6346% | -1.567% |
| 5 | `Cc1cnc(C(=O)NC(CN2CCCC2=O)c2ccccc2)cn1` (stereo not given) | -1.505% | -4.334% |
| 6 | `Cc1cccc(C)c1OCC(O)CNCc1c(C)nn(C)c1N(C)C` (stereo not given) | 20.02% | 11.5% |
| 7 | `CC(C)Cc1noc(CN2CCN(C(=O)c3cccc(F)c3)CC2)n1` | 20.06% | 6.402% |
| 8 | `c1c(CN2CCOCC2)nc2n1CCN(CC1CC1)C2` | -15.72% | -13.71% |
| 9 | `Cc1oncc1C(=O)N1CCC2(CC1)C(c1cnn(C)c1)CC(=O)N2C` (stereo not given) | 7.324% | -1.03% |
| 10 | `COc1cccc(S(=O)(=O)NC2CNC(=O)C2)c1` (stereo not given) | -1.529% & 12.99% | -2.907% |
| 11 | `COC(=O)c1ncccc1N1CCC(C(O)c2ccccc2)CC1` (stereo not given) | -31.43% | -24.55% |
| 12 | `CN(C)[C@H]1CN(C(=O)CCCc2ccc(F)cc2)C[C@@H]1C1CC1` | 2.712% | 2.716% |
| 13 | `CC(C)c1nnc(CN2CCCc3ccc(S(N)(=O)=O)cc32)o1` | -9.49% | -5.819% |
| 14 | `COCC1CN(Cc2cc(C)on2)Cc2cn(C)nc21` (stereo not given) | 22.83% | 23.98% |
| 15 | `CCc1nc(C)c(C(=O)N[C@@H]2c3ccccc3C[C@@H]2O)o1` | -47.51% | -36.4% |
| 16 | `CN(C)Cc1ccccc1Cn1cncc1-c1cnn(C)c1` | 4.751% | 24.81% |
| 17 | `O=C(c1ccnc(-n2cnnc2)c1)N1CCCC2(CCOC2)C1` (stereo not given) | -11.97% & 0.7696% | 4.871% |
| 18 | `CSCc1cccc(S(=O)(=O)N2CCCCC2)c1` | 39.14% | -7.716% |
| 19 | `O=C(O)C(F)(F)F.O=C(O)C(F)(F)F.[H][C@@]12CCN(Cc3ccc(C)o3)C[C@]1([H])OCCN(Cc1cccnc1)C2=O` | 22.54% | -12.89% |
| 20 | `CS(=O)(=O)CCCN(CCc1cccc(F)c1)C1CC1` | 18.64% | -12.25% |
| 21 | `O=C(NCc1ccco1)c1ccc(N2CCOCC2)cc1` | -5.62% | -2.426% |
| 22 | `Cc1cc(C(=O)N2C[C@@H](CN(C)CCN(C)C)[C@@H](CO)C2)nc(C)n1` | -2.775% & -0.7954% | -31.97% |
| 23 | `CN(Cc1cc(-c2ccccc2)no1)C1CCCN(c2cccnn2)C1` (stereo not given) | -13.94% | -3.779% |
| 24 | `Cc1ccoc1C(=O)NC1CCN(CC(=O)N(C)c2ccccc2)CC1` | 26.06% | -20.52% |
| 25 | `CCOc1ncccc1NC(=O)N1CCC(n2cncn2)CC1` | -14.6% | -18.44% |
| 26 | `Cc1cnn(CC2CCCCN2C(=O)Cc2c(C)nn(C)c2C)c1` (stereo not given) | -11.69% | -11.82% |
| 27 | `O=C(NCc1cc(-c2ccccc2)no1)NCC1CCCO1` (stereo not given) | 17.36% | -2.576% |
| 28 | `COCC(c1ccccn1)N(C)C(=O)c1cc(-c2ccc(O)cc2)n[nH]1` (stereo not given) | -30.66% | -16.67% |
| 29 | `O=C(O)C(F)(F)F.O=C(O)C(F)(F)F.[H][C@@]12COC[C@@H](CC(=O)N3CCOCC3)[C@]1([H])CN(Cc1ccncc1)C2` | -9.505% | -6.832% |
| 30 | `CCOCc1cncc2c1CCN(C(=O)c1cccc(C#N)c1)C2` | 18.71% & -4.165% | 26.51% |
| 31 | `CC1CCN(S(=O)(=O)NC(C)Cc2ccco2)CC1` (stereo not given) | 33.81% & 46.64% | 40.23% |
| 32 | `CC(C)C(=O)NS(=O)(=O)CCc1ccccc1` | 5.527% & 11.64% | 9.629% |
| 33 | `O=C(c1ccc(-n2cnnc2)cc1)N1CCCC(n2ccnc2)C1` (stereo not given) | 10.8% & -2.042% | 5.125% |
| 34 | `CC(C)OCCN1CCN(C(=O)c2cccc(CC#N)c2)CC1` | -12.9% | -31.63% |
| 35 | `COc1ccc(OC)c(CNCc2ccnc(N3CCCCC3)c2)c1` | -9.723% | -3.557% |
| 36 | `COCc1noc(-c2ccc(N3CCCC3c3nccs3)nc2)n1` (stereo not given) | -0.31% | 2.719% |
| 37 | `COc1nc2c(cc1C(=O)N1CCCOC(Cn3cccn3)C1)CCC2` (stereo not given) | -13.05% | 2.137% |
| 38 | `CC(C)c1noc(CCC(=O)NC(C)c2nnc3n2CCC3)n1` (stereo not given) | -1.457% & -20.13% | -2.855% |
| 39 | `Cc1nn(C2CCS(=O)(=O)C2)c(O)c1Cc1ccccc1Cl` (stereo not given) | 0.6706% | 13.8% |
| 40 | `COC(=O)CN1CCN(c2nc3c(s2)c(C)nn3C)C(C)C1=O` (stereo not given) | -12.92% | -8.794% |
| 41 | `COCC(O)CN1CCC(=O)N(Cc2ccccc2)Cc2ccccc21` (stereo not given) | -10.5% | -15.06% |
| 42 | `CN(C)c1cc(C(=O)N2CCCCC2CNS(C)(=O)=O)ccn1` (stereo not given) | 2.734% | 11.31% |
| 43 | `[H][C@@]12CCN(S(=O)(=O)CC)[C@]1([H])CC[C@@H](c1nnc(C)o1)O2` | -8.347% | -22.49% |
| 44 | `CN(Cc1cc[nH]n1)C(=O)c1ccc2c(c1)nc(N1CC[C@H](O)C1)n2C` | -43.46% | -27.24% |
| 45 | `Cc1noc(C)c1CN1CCC[C@]2(C[C@@H](Oc3ccccn3)CO2)C1.O=C(O)C(F)(F)F.O=C(O)C(F)(F)F` | -31.37% | -19.97% & -14.66% |
| 46 | `O=C(NCc1cnc2n1CCN(CC1CCOCC1)C2)c1ccno1.O=C(O)C(F)(F)F` | -56% | -49.73% |
| 47 | `[H][C@@]12CN(Cc3cccnc3N)C[C@]1([H])N(Cc1ccccn1)C(=O)O2` | -22.39% | -19.4% |
| 48 | `CC(=O)N1CCCN(C(=O)c2ccc(Cn3ccccc3=O)o2)CC1` | -30.86% | -11.5% |
| 49 | `Cc1cnc(N2Cc3nccn3CC(Cn3ncccc3=O)C2)nc1.O=C(O)C(F)(F)F` (stereo not given) | 6.013% | 10.46% |
| 50 | `Cc1nc(C)c2c(n1)CCN(Cc1ccco1)CC2` | -4.32% & -1.183% | -10.33% |
| 51 | `CC(C)Nc1ncc(-c2ccncc2)c([C@@H]2CCCO2)n1` | -26.72% | -16.12% |
| 52 | `CCCc1cc(CN(C)C2CCSCC2)n[nH]1` | 22.51% | 6.217% |
| 53 | `CS(=O)(=O)N1CCCC(c2nc(-c3ccccc3)c[nH]2)C1` (stereo not given) | -4.427% | 16.29% & -3.121% |
| 54 | `O=C(O)C(F)(F)F.[H][C@@]12COC[C@]1(COC)CN(Cc1cc(OC)cc(OC)c1)C2` | 18.3% | 8.573% |
| 55 | `CC(=O)NC1CCCN(C(=O)Nc2nnc(C(C)C)s2)C1` (stereo not given) | -16.59% | -4.803% |
| 56 | `CC(C(=O)N1CCc2ccccc2C1)n1cc(Br)cn1` (stereo not given) | 20.28% | -22.09% |
| 57 | `CO[C@@H]1CCN(C(=O)Cc2cccc(F)c2)[C@H]1Cc1cccnc1.O=C(O)C(F)(F)F` | -7.649% | -9.299% |
| 58 | `Cc1nc(C)c2c(n1)CCN(C(=O)CN(C)C)CC2` | 1.879% & -8.532% | -5.093% |
| 59 | `Cc1cnc(N2CCC3(CC2)CC3CNC(=O)C2CCC2)nc1.O=C(O)C(F)(F)F` (stereo not given) | 42.54% | 8.919% |
| 60 | `NC(=O)C1CCN(C(=O)NCc2ccccc2-n2cccn2)CC1` | 13.97% | 11.53% |
| 61 | `CCOC(=O)c1n[nH]cc1CN1CCOC(Cc2ccc(OC)cc2)C1` (stereo not given) | 4.298% & -8.262% | -4.675% |
| 62 | `Cc1nn(C)c2cnn(Cc3ccc(C(=O)NCC4CC4)o3)c12` | 3.946% | 4.479% |
| 63 | `Cc1ccnc(NC(=O)c2ccc(C)o2)c1` | -6.874% & -3.972% | -0.9497% |
| 64 | `COc1ccc(N2CCN(C[C@@H](C)CO)CC2=O)cc1` | 5.6% | -2.345% |
| 65 | `Cc1occc1C(=O)N1CC[C@@H](N2CCOCC2)[C@@H]1Cc1ccccc1` | -6.251% | -8.945% |
| 66 | `Cc1nc(CN2CC[C@@H](OCC3CC3)[C@@H]2Cc2cccnc2)cs1.O=C(O)C(F)(F)F.O=C(O)C(F)(F)F` | 27.71% | 19.84% |
| 67 | `COc1ccc(NC(=O)NCc2ccnc(N(C)C)c2)cn1` | -43.01% | -28.32% |
| 68 | `CN(C)CCCn1ccnc1C1CCN(c2cccc(C(=O)O)n2)CC1` | 22.57% | 3.052% |
| 69 | `Cc1cc(S(=O)(=O)N2CC[C@@H](O)C2)c(Cl)cc1F` | 1.18% | 29.82% |
| 70 | `CC(=O)N1CCCC(Cc2cnc(-c3c(C)nn(C)c3C)cn2)C1` (stereo not given) | 4.912% | 3.44% |
| 71 | `[H][C@@]12OCCN(C(=O)c3nn(C)c4ccccc34)[C@@]1([H])CC[C@@H]2OC` | 18.46% | -7.544% |
| 72 | `Cc1ccc(N2C[C@H](C)[C@]3(CCN(c4cccnc4)C3=O)C2)nn1.O=C(O)C(F)(F)F.O=C(O)C(F)(F)F` | -9.175% | 11.12% |
| 73 | `COc1cccc(-n2cc(-c3ccnc(N[C@H](CO)C(C)C)n3)cn2)c1` | 14.14% | 28.82% |
| 74 | `Cc1cccc(C(C(=O)NCc2nc(-c3ncccn3)no2)N(C)C)c1` (stereo not given) | -6.969% | -10.6% |

6 of the entries, repeated:

For CCOc1ncccc1NC(=O)N1CCC(n2cncn2)CC1 the result was Mtb glucose medium: -14.6%; Mtb cholesterol medium: -18.44%.
For COC(=O)c1ncccc1N1CCC(C(O)c2ccccc2)CC1 (stereo not given) the result was Mtb glucose medium: -31.43%; Mtb cholesterol medium: -24.55%.
For Cc1cc(S(=O)(=O)N2CC[C@@H](O)C2)c(Cl)cc1F the result was Mtb glucose medium: 1.18%; Mtb cholesterol medium: 29.82%.
For CC(C(=O)N1CCc2ccccc2C1)n1cc(Br)cn1 (stereo not given) the result was Mtb glucose medium: 20.28%; Mtb cholesterol medium: -22.09%.
For CN(C)[C@H]1CN(C(=O)CCCc2ccc(F)cc2)C[C@@H]1C1CC1 the result was Mtb glucose medium: 2.712%; Mtb cholesterol medium: 2.716%.
For Cc1cnc(N2CCC3(CC2)CC3CNC(=O)C2CCC2)nc1.O=C(O)C(F)(F)F (stereo not given) the result was Mtb glucose medium: 42.54%; Mtb cholesterol medium: 8.919%.